From the supplement of paper PMC12282887
Values are raw readings; no control value is given beside them.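 The top concentration was set near the MIC for antimicrobials, at 500 µM for most other compounds, and up to 1 mM for known inducer-like compounds. Deletion strains started from a tenfold smaller inoculum, and wells growing below 10% of the overall median were treated as non-growing.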

Test system: Escherichia coli BW25113
Assay: growth (OD600 area under curve, 8 h) (OD600 x h); higher = more growth
Procedure: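 E. coli BW25113 reporter strains (wild type, ΔmarA, ΔsoxS, Δrob, each carrying one of 8 lux reporter plasmids) were grown in 40 µl LB in 384-well plates at 37°C, 800 rpm, with each compound at 4 two-fold concentrations, in biological duplicates. Growth is the baseline-corrected OD600 area under the curve over 8 h (0-8 h WT, 1-9 h deletion strains).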

CNC[C@H](O)c1ccc(O)c(O)c1 [Adrenalin]
growth
Conditions | reporter plasmid: EVC | reporter plasmid: acrABp | reporter plasmid: marRABp | reporter plasmid: micFp | reporter plasmid: ompFp | reporter plasmid: robp | reporter plasmid: soxSp | reporter plasmid: tolCp
13.7 µg/ml, genetic background: wild type | 2.78 | 2.91 | 3.15 | 2.73 | 2.68 | 3.11 | 2.74 | 2.79
13.7 µg/ml, genetic background: ΔmarA | 2.81 | 3.93 | 3.57 | 3.05 | 3.26 | 3.64 | 2.51 | 2.7
13.7 µg/ml, genetic background: Δrob | 2.56 | 2.8 | 3.05 | 2.461 | 2.36 | 2.49 | 2.17 | 2.55
13.7 µg/ml, genetic background: ΔsoxS | 2.67 | 2.78 | 2.97 | 2.44 | 3 | 3.2 | 2.83 | 2.551
27.5 µg/ml, genetic background: wild type | 2.65 | 2.76 | 2.79 | 2.55 | 2.45 | 2.69 | 2.53 | 2.69
27.5 µg/ml, genetic background: ΔmarA | 2.56 | 3.46 | 3.02 | 2.87 | 2.93 | 3.26 | 2.33 | 2.44
27.5 µg/ml, genetic background: Δrob | 2.78 | 2.68 | 2.58 | 2.32 | 2.05 | 2.14 | 1.97 | 2.56
27.5 µg/ml, genetic background: ΔsoxS | 2.7 | 2.73 | 2.89 | 2.2 | 2.73 | 2.75 | 2.6 | 2.56
54.9 µg/ml, genetic background: wild type | 2.96 | 3.182 | 3.26 | 2.55 | 2.98 | 2.95 | 2.46 | 2.66
54.9 µg/ml, genetic background: ΔmarA | 3.08 | 3.96 | 3.51 | 3.04 | 3.34 | 4.23 | 2.7 | 2.76
54.9 µg/ml, genetic background: Δrob | 2.42 | 2.77 | 3.2 | 2.42 | 2.23 | 2.56 | 1.97 | 2.36
54.9 µg/ml, genetic background: ΔsoxS | 2.68 | 2.9 | 3.02 | 2.38 | 3.03 | 3.43 | 3.06 | 2.68
109.8 µg/ml, genetic background: wild type | 2.54 | 2.8 | 2.63 | 2.03 | 2.041 | 2.64 | 2.28 | 2.42
109.8 µg/ml, genetic background: ΔmarA | 2.24 | 3.07 | 2.47 | 2.25 | 2.11 | 3.23 | 1.78 | 1.94
109.8 µg/ml, genetic background: Δrob | 1.99 | 2.01 | 2.32 | 1.63 | 1.38 | 1.53 | 1.3 | 2.08
109.8 µg/ml, genetic background: ΔsoxS | 1.99 | 1.68 | 1.85 | 1.12 | 1.18 | 1.67 | 1.64 | 1.79
